# Data from article PMC7819943, “Rice protein-binding microarrays: a tool to detect cis-acting elements near promoter regions in rice”.
# The list shows a part of the results.
# Target: T1, OsSMF1 (Oryza sativa, UniProt Q6ZLB0 1-436)
# T1 sequence: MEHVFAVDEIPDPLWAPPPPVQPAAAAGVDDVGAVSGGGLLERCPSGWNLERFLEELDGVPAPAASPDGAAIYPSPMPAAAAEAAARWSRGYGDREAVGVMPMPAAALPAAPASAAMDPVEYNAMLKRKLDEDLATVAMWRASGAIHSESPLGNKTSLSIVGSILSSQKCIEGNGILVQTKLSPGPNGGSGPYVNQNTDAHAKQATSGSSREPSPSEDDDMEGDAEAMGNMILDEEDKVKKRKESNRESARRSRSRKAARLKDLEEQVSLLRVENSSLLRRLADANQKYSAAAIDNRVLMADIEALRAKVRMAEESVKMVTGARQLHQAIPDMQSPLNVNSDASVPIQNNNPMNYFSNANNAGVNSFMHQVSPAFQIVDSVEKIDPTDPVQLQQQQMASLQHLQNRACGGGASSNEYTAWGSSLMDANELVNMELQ
# Assay: protein-binding microarray (RPBM); PBS, 2% BSA, 51.3 ng/ul salmon testes DNA, 50 uM zinc acetate, 200 nM TF, 25 C, 1 h; high values mean tight binding
# Conditions: protein: recombinant; tags: N-terminal polyhistidine and DsRed monomer fusion (pET32a); chain copies: 2; label: CyDye5-dUTP incorporated in the synthesized complementary strand; 3' TTTTT single-stranded linker to array surface; dsDNA, one strand shown
# Procedure, shortened: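 Binding signal here means per-feature fluorescence intensity in arbitrary units. The values were read on an Axon 4000B scanner after a custom Agilent array, double-stranded by primer extension with Cy5-dUTP, was incubated with 200 nM protein at 25 °C for 1 h in PBS with 2% BSA, salmon testes DNA and 50 µM zinc acetate, then washed. The proteins were transcription factors with an N-terminal polyhistidine tag and DsRed, expressed in E. coli BL21-CodonPlus and purified on Ni–NTA.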
row,Sequence,binding signal
1,ATACCTGGAAGTATAACCACACACGTTTATGACGTCATCACGGAGTCACCTAGTGCAG,25700 fluorescence intensity (a.u.)
2,CAACCCTGACGTCACGTAAGCTTTTGCCAATTCCGCCAACCGGAGTCACCTAGTGCAG,9890 fluorescence intensity (a.u.)
3,GGGCGCCCTCCGGTTTGAATTGCGAAGGAATTTGCGAGCTCGGAGTCACCTAGTGCAG,20100 fluorescence intensity (a.u.)
4,GTCGGACACGGGGCAGTACCCCGCGAGCGTCACGGCGGCGCGGAGTCACCTAGTGCAG,3420 fluorescence intensity (a.u.)
5,CCCACCCACTACCTCTCTCTCCTCAATCTCCTCTCTACCCCGGAGTCACCTAGTGCAG,19500 fluorescence intensity (a.u.)
6,GAAGCAATTGGGCGGTGTCGATCGTTGACAATGCTCTACTCGGAGTCACCTAGTGCAG,3550 fluorescence intensity (a.u.)
7,CCGAAAATATCACGCGGCTTATGGCCATCGCCCACGTGGCCGGAGTCACCTAGTGCAG,8780 fluorescence intensity (a.u.)
8,ACCCATAGTGTCCATAAGTAGTGTCTATGGTGCCATGTCACGGAGTCACCTAGTGCAG,6680 fluorescence intensity (a.u.)
9,ATTTATCGTACACCAAGAATCATACATGCAGACACGCAAACGGAGTCACCTAGTGCAG,3220 fluorescence intensity (a.u.)
10,AGTAGGTTGGTGCGTCACATTACTCGGCAGCGGACACATTCGGAGTCACCTAGTGCAG,4690 fluorescence intensity (a.u.)
11,CCTCAGTCGCTCCAAGGCATCCTCCTCGCGTCGTCACTCGCGGAGTCACCTAGTGCAG,3770 fluorescence intensity (a.u.)
12,GAACGACTTTCTATTCCAATAGATAACACTACCCCTAGTACGGAGTCACCTAGTGCAG,3460 fluorescence intensity (a.u.)
13,CAAGTAGTTTGTGAATTGTGACCATCAAACAGATTCGTGTCGGAGTCACCTAGTGCAG,3640 fluorescence intensity (a.u.)
14,TCAGCTCCACTACCAGACAAAACACATCACCCAAAACCCCCGGAGTCACCTAGTGCAG,4330 fluorescence intensity (a.u.)
15,TTGACATGTGGGGCCTATTGGACACGTCAGTCAAAATCGGCGGAGTCACCTAGTGCAG,7020 fluorescence intensity (a.u.)
16,TTACGCCTTATTAGGGTGTAGCCCACGGCCCACCTTTCCGCGGAGTCACCTAGTGCAG,22300 fluorescence intensity (a.u.)
17,AGTGAGCTCGCGTGATGAGCTTCGGTGGCATGTTCGATGGCGGAGTCACCTAGTGCAG,3210 fluorescence intensity (a.u.)
18,ATGGAAGTGCTGAATCAGCTCTTGTAAATCCTATTTCATTCGGAGTCACCTAGTGCAG,8860 fluorescence intensity (a.u.)
19,TAGGCGCTAAGTCCGACTTCCTCTCCCCGAGATAGCCAGCCGGAGTCACCTAGTGCAG,32300 fluorescence intensity (a.u.)
20,ACCGTCATCCTCGCCGTCCCCTTCTTCTGCGCCGCCGCCGCGGAGTCACCTAGTGCAG,10700 fluorescence intensity (a.u.)
21,ATGGACCACGTGTACGCTTTGTATGGAATAAGGTCACTTTCGGAGTCACCTAGTGCAG,10000 fluorescence intensity (a.u.)

# Reformatted tab-delimited: entries from further up.
row	Sequence	binding signal
1	ATACCTGGAAGTATAACCACACACGTTTATGACGTCATCACGGAGTCACCTAGTGCAG	25700 fluorescence intensity (a.u.)
9	ATTTATCGTACACCAAGAATCATACATGCAGACACGCAAACGGAGTCACCTAGTGCAG	3220 fluorescence intensity (a.u.)
20	ACCGTCATCCTCGCCGTCCCCTTCTTCTGCGCCGCCGCCGCGGAGTCACCTAGTGCAG	10700 fluorescence intensity (a.u.)

# (list continues)

row,Sequence,binding signal
1,CACGAATCACGGAGCGAAACGTGGCCGCGCGGTTCAGACCCGGAGTCACCTAGTGCAG,21400 fluorescence intensity (a.u.)
2,GACGTGTGGGTCCCACTTCTGGTGGGGACACGTGTCAGCCCGGAGTCACCTAGTGCAG,21800 fluorescence intensity (a.u.)
3,GGAGGAGGAGCTAGGGTTTCGGATGGGAGGAGGAGGAGGGCGGAGTCACCTAGTGCAG,3140 fluorescence intensity (a.u.)
4,CCCTAGACGACCACCACCATCTGACGGCGGTGGCTGCGGCCGGAGTCACCTAGTGCAG,3540 fluorescence intensity (a.u.)
5,CATCATGACGGCAATCATCGGCGACACGTGCCCGCAGCGGCGGAGTCACCTAGTGCAG,6200 fluorescence intensity (a.u.)
6,CTATGCCTTGTCAACATTCAACCCCTCCAATAGACTTTGTCGGAGTCACCTAGTGCAG,3210 fluorescence intensity (a.u.)
7,TTTAGACACGTATATGATGCACATATATGGATCCATGCATCGGAGTCACCTAGTGCAG,4290 fluorescence intensity (a.u.)
8,TTCCCGGACCCAATAAACCATCCGATGGCCTCCTTTGACGCGGAGTCACCTAGTGCAG,3380 fluorescence intensity (a.u.)
9,CACTGACACGGCCCACGAAGCCGCAGCGTTCATGCGTAGACGGAGTCACCTAGTGCAG,3140 fluorescence intensity (a.u.)
10,ACCACATGTAGTGGTAGGGTCGATCCAATCTGCTCTACCTCGGAGTCACCTAGTGCAG,26400 fluorescence intensity (a.u.)
11,TTATAATGAATAAAAGATTCTTCTTCTTTGGCAAATTGCACGGAGTCACCTAGTGCAG,14000 fluorescence intensity (a.u.)
12,TTGTATAAAATAATCAGTGTGTCATGCTTAAAGTCTAAAACGGAGTCACCTAGTGCAG,4260 fluorescence intensity (a.u.)
13,TAAGATGATCGGACTCCTAATTACAGCTCATGATTTTCTTCGGAGTCACCTAGTGCAG,3170 fluorescence intensity (a.u.)
14,ATAACAATTAGGATGAAATGGTCAAGCGCATGGTTGGGATCGGAGTCACCTAGTGCAG,3460 fluorescence intensity (a.u.)
15,CGTACGGGTACTGATTCGTCACGCTGCGCCGTGTTGCGTCCGGAGTCACCTAGTGCAG,4580 fluorescence intensity (a.u.)
16,TGACATCGTCTTCTCCAACTTCGGCCGCCGGCGTCAATCTCGGAGTCACCTAGTGCAG,3310 fluorescence intensity (a.u.)
17,GGTCCCTGCCTCGTGAGCAGCCCATCTGCACTGCCTTCTGCGGAGTCACCTAGTGCAG,3630 fluorescence intensity (a.u.)
18,AGTCCACATGGAGTACCCCATAAGCCCATCGCTAATTATACGGAGTCACCTAGTGCAG,3440 fluorescence intensity (a.u.)
19,ACTATCTACGTCATCTCCTATTTCTTCCCTTTTCTTCTCTCGGAGTCACCTAGTGCAG,15400 fluorescence intensity (a.u.)
20,CTGAACACGTATGTGTCTAGATTCGTTGATAGGATTGGATCGGAGTCACCTAGTGCAG,3930 fluorescence intensity (a.u.)
21,GGTGGAAATGGTGTTTATGTGTGTGAGTATGTTATTCCTTCGGAGTCACCTAGTGCAG,3200 fluorescence intensity (a.u.)
